Laboratory results published in paper PMC6163694.
No constants are given. Whether binding was seen depends on the method and setting. Binding seen in cells or lysates may run through a third protein. Some binding calls cover weakened binding; strength is not graded here.

Sequences of proteins named here, by UniProt entry; tags and fusion partners are left off.
UniProt P59242: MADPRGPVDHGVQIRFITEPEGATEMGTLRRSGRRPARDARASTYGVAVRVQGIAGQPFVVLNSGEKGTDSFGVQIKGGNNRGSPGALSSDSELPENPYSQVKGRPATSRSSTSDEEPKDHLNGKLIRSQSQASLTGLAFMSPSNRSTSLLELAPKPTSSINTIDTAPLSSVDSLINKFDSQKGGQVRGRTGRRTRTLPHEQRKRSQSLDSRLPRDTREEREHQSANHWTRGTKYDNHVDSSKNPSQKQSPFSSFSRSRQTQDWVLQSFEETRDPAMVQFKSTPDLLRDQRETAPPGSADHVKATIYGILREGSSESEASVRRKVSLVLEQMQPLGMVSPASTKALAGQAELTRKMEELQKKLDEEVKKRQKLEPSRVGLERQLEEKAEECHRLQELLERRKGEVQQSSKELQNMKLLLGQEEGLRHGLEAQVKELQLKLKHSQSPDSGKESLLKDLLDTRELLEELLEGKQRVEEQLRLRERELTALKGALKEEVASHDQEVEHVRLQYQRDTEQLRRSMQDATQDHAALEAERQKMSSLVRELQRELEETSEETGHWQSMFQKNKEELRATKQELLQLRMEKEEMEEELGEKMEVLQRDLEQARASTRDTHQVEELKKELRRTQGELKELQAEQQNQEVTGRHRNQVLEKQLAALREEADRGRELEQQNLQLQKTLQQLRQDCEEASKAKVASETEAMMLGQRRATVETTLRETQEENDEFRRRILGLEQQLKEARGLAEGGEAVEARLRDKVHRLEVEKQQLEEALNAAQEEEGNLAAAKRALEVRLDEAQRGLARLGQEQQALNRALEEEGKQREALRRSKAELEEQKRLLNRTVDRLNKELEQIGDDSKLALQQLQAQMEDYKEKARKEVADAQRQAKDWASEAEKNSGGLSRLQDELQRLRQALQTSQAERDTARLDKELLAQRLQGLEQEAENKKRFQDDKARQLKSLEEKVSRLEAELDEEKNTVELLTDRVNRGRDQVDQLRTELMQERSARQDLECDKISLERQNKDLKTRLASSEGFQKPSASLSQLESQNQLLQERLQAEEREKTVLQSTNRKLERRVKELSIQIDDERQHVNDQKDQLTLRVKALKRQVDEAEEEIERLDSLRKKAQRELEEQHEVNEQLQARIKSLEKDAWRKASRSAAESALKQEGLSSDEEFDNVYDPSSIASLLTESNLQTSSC
UniProt P70689: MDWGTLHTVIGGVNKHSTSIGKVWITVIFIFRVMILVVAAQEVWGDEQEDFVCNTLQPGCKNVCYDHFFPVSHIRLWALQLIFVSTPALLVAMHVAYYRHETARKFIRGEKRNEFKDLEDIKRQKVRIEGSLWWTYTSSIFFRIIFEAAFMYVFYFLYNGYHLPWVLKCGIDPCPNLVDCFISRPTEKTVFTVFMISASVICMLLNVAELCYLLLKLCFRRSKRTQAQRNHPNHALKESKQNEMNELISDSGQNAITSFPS
UniProt P23242: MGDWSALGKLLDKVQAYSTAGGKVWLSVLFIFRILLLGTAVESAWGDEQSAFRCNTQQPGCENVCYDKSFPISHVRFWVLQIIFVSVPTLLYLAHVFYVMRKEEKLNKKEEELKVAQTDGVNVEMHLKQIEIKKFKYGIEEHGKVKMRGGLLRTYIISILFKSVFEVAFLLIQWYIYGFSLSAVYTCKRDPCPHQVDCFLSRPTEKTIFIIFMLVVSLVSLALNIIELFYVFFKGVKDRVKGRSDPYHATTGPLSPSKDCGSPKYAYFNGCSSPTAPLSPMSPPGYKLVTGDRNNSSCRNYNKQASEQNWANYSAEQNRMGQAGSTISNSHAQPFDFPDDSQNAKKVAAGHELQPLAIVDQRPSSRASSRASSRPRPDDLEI

B1: argininosuccinate synthase 1 (ASS1) (protein, UniProt P16460 1-412)
chain: MSSKGSVVLAYSGGLDTSCILVWLKEQGYDVIAYLANIGQKEDFEEARKKALKLGAKKVFIEDVSKEFVEEFIWPAVQSSALYEDRYLLGTSLARPCIARRQVEIAQREGAKYVSHGATGKGNDQVRFELTCYSLAPQIKVIAPWRMPEFYNRFKGRNDLMEYAKQHGIPIPVTPKSPWSMDENLMHISYEAGILENPKNQAPPGLYTKTQDPAKAPNSPDVLEIEFKKGVPVKVTNIKDGTTRTTSLELFMYLNEVAGKHGVGRIDIVENRFIGMKSRGIYETPAGTILYHAHLDIEAFTMDREVRKIKQGLGLKFAELVYTGFWHSPECEFVRHCIQKSQERVEGKVQVSVFKGQVYILGRESPLSLYNEELVSMNVQGDYEPIDATGFININSLRLKEYHRLQSKVTAK
B2: connexin 31 (CX31), endogenous (protein, UniProt P28231 1-270)
chain: MDWKKLQDLLSGVNQYSTAFGRIWLSVVFVFRVLVYVVAAERVWGDEQKDFDCNTRQPGCTNVCYDNFFPISNIRLWALQLIFVTCPSMLVILHVAYREERERKHRQKHGEQCAKLYSHPGKKHGGLWWTYLFSLIFKLIIELVFLYVLHTLWHGFTMPRLVQCASIVPCPNTVDCYIARPTEKKVFTYFMVGASAVCIILTICEICYLIFHRIMRGISKGKSTKSISSPKSSSRASTCRCHHKLLESGDPEADPASEKLQASAPSLTPI

Molecular target: cingulin (CGN) (mouse (endogenous in mouse brain or liver)) (UniProt P59242)
Assay: co-IP; anti-CGN antibody on precleared P2–P3 mouse liver lysate in RIPA buffer, 16 h at 4 °C, protein-A plus protein-G beads; Western blot; normal mouse serum as control

binding	Molecule
binds	connexin 30 (CX30), endogenous (from UniProt P70689 1-261)
binds	connexin 43 (CX43), endogenous (from UniProt P23242 1-382)
binds	B1
binds	B2
